Measured data: PubChem BioAssay AID652243 (Drosophila RNAi Screening Center, 2013)

- Aim: 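Fly regulators of androgen-dependent reporter output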 (primary screen)
- Cell system: Drosophila S2R+ cells
- Knock-down reagent: long dsRNA against Drosophila genes
- Duration: 72 h (48 h, then 24 h hormone)
- Challenge: synthetic androgen R1881 at 10 nM for 24 h
- Measurement: 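Per-well raw luminescence of the androgen-driven firefly reporter and of the Renilla control, two replicates each, without normalisation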
- Direction: firefly reporter light: higher = more light from androgen-responsive reporter; Renilla control light: higher = more constitutive control signal (cell number, transfection)
- Active means: 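Across duplicate plates, a knock-down whose log firefly/Renilla ratio shifted a set fold down or up from the GFP/LacZ control mean was a hit; the downward cut appears as both 1.5 and 3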
- Meaning of the calls: active = hit: reporter lowered or raised; inactive = no hit
In all, the deposit lists about 24,000 reagents; shown is an unselected part of those with a known target gene and a result. Of all reagents, 246 (1%) got an active call. 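Plates not normalised; calls are printed but the firefly/Renilla ratio behind them is not deposited; fold cut for lowering reported inconsistently.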 The raw values are shown without normalisation. The numbers tell different reagents against one gene apart. A plus sign joins genes that one reagent is predicted to hit. Not stated in the record: the amount of reagent.

gene	reagent no.	firefly reporter light, replicate 1	firefly reporter light, replicate 2	Renilla control light, replicate 1	Renilla control light, replicate 2	call
Lint-1 + rtv	1	1.28e5	1.48e5	9.50e5	7.32e5	inactive
Atg8b (Autophagy-related 8b)	1	1.95e5	2.01e5	1.40e6	1.26e6	inactive
Atg8b (Autophagy-related 8b)	2	8.17e5	8.18e5	1.32e6	1.41e6	inactive
CG16865	1	2.88e5	2.49e5	1.48e6	1.48e6	inactive
Usp39 (Ubiquitin specific protease 39)	1	1.05e5	1.02e5	6.98e5	8.43e5	inactive
Usp39 (Ubiquitin specific protease 39)	2	4.06e5	3.99e5	1.66e6	1.61e6	inactive
ZnT86D (Zinc transporter 86D)	1	1.40e5	1.40e5	1.73e6	2.18e6	inactive
pen-2 (presenilin enhancer)	1	3.81e5	4.57e5	9.16e5	1.60e5	inactive
CG10725	1	7.52e5	6.04e5	2.12e6	1.76e6	inactive
Tsp33B (Tetraspanin 33B)	1	2.31e5	1.67e5	8.74e5	1.38e6	inactive
Tsp33B (Tetraspanin 33B)	2	7.73e5	7.25e5	1.68e6	1.28e6	inactive
mdlc (midlife crisis)	1	93177	79587	5.06e5	5.97e5	inactive
mdlc (midlife crisis)	2	3.78e5	3.24e5	1.58e6	1.43e6	inactive
Cyp4g15 (Cytochrome P450 4g15)	1	8.16e5	6.58e5	3.84e6	3.88e6	inactive
CG7675	1	96596	72885	6.49e5	6.38e5	inactive
CG7675	2	3.92e5	3.52e5	5.81e5	4.23e5	inactive
CG17571	1	1.24e5	1.49e5	3.77e5	2.77e5	inactive
CG17571	2	1.83e5	2.05e5	1.58e6	1.48e6	inactive
CG17571	3	7.97e5	7.99e5	9.96e5	9.64e5	inactive
CG42353 + CG42354	1	6.49e5	7.89e5	1.93e6	1.76e6	inactive
CG42353 + CG42354	2	4.62e5	4.72e5	1.67e6	1.57e6	inactive
CG32196	1	2.77e5	2.51e5	7.10e5	6.22e5	inactive
CG42254 (retired record)	1	56603	72152	1.36e6	1.36e6	inactive
Syt14 (Synaptotagmin 14)	1	94705	86186	2.07e6	1.44e6	inactive
CG13369	1	1.71e5	2.33e5	3.16e6	2.23e6	inactive
CG13369	2	7.73e5	6.45e5	9.16e5	9.16e5	inactive
CG13369	3					inactive
Obp57e (Odorant-binding protein 57e)	1	2.41e5	2.62e5	3.68e5	2.70e5	inactive
Loxl1 (Lysyl oxidase-like 1)	1	1.51e5	1.58e5	1.82e6	2.31e6	inactive
peb (pebbled)	1	7.00e5	7.55e5	1.54e6	1.54e6	inactive
peb (pebbled)	2	3.67e5	3.98e5	6.92e5	7.50e5	inactive
Tsp66A + CG42661 + CG42660	1	2.03e5	2.34e5	2.49e6	2.70e6	inactive
Spt6	1	46381	39802	4.35e5	2.73e5	inactive
CG13252	1	1.93e5	2.19e5	2.80e6	2.92e6	inactive
CG13252	2	2.41e5	3.01e5	4.48e5	6.54e5	inactive
Taldo (Transaldolase)	1	8.57e5	8.71e5	1.25e6	1.27e6	inactive
Taldo (Transaldolase)	2	3.76e5	3.57e5	8.02e5	7.58e5	inactive
RpS7 (Ribosomal protein S7)	1	2.22e5	2.20e5	1.51e6	2.14e6	inactive
RpS7 (Ribosomal protein S7)	2	2.29e5	3.05e5	8.68e5	1.30e6	active
CG10597	1	2.23e5	2.25e5	2.25e6	1.90e6	inactive
CG10597	2	8.79e5	1.09e6	1.15e6	1.19e6	inactive

Looked up above:
Value of CG7675 #2 in “firefly reporter light, replicate 1”: 3.92e5
For “firefly reporter light, replicate 1”, CG13252 #2 is entered as 2.41e5
Value of CG7675 #1 under “call”: inactive
Under “call”, CG10725 reads inactive
Spt6, Renilla control light, replicate 2 = 2.73e5
